Source: PMC9445010
No constants are given. Whether binding was seen depends on the method and setting. Binding can be weak; no strength is given. Each block holds one binder with its values, some of them ahead of it.

Target: PmoC (Methylococcus capsulatus (Bath) (endogenous in M. capsulatus (Bath)))
Assay: cryo-EM structure; cryoET with subtomogram averaging of isolated M. capsulatus (Bath) membranes, no detergent; 25 mM PIPES pH 7.3, 250 mM NaCl; single trimer 4.8 Å, 7-particle unit 10 Å, three trimers 12 Å; 3-fold symmetry applied

- binding: binds
B1: PmoB (protein, UniProt G1UBD1 33-414)
chain: HGEKSQAAFMRMRTIHWYDLSWSKEKVKINETVEIKGKFHVFEGWPETVDEPDVAFLNVGMPGPVFIRKESYIGGQLVPRSVRLEIGKTYDFRVVLKARRPGDWHVHTMMNVQGGGPIIGPGKWITVEGSMSEFRNPVTTLTGQTVDLENYNEGNTYFWHAFWFAIGVAWIGYWSRRPIFIPRLLMVDAGRADELVSATDRKVAMGFLAATILIVVMAMSSANSKYPITIPLQAGTMRGMKPLELPAPTVSVKVEDATYRVPGRAMRMKLTITNHGNSPIRLGEFYTASVRFLDSDVYKDTTGYPEDLLAEDGLSVSDNSPLAPGETRTVDVTASDAAWEVYRLSDIIYDPDSRFAGLLFFFDATGNRQVVQIDAPLIPSFM

- binding: binds
B2: PmoA (protein, UniProt Q607G3 1-247)
chain: MSAAQSAVRSHAEAVQVSRTIDWMALFVVFFVIVGSYHIHAMLTMGDWDFWSDWKDRRLWVTVTPIVLVTFPAAVQSYLWERYRLPWGATVCVLGLLLGEWINRYFNFWGWTYFPINFVFPASLVPGAIILDTVLMLSGSYLFTAIVGAMGWGLIFYPGNWPIIAPLHVPVEYNGMLMSIADIQGYNYVRTGTPEYIRMVEKGTLRTFGKDVAPVSAFFSAFMSILIYFMWHFIGRWFSNERFLQST
